Results as given in PubChem BioAssay AID1508600 (Functional Genomics Laboratory (NCATS/FGL), 2020).
The campaign covered roughly 53,000 sequences. About 3,700 (7%) were called active.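 Rule for the calls: active = gene knockdowns whose robust z-score for IL-1 alpha signal is at least 2 or at most -2, so actives lie on both sides; inactive = the rest.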 Some of the results follow.

Test: Components of the Cytosolic LPS Sensing Pathway: Gene Identification via Genome-wide siRNA Screen;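 note: robust z of the log signal after scaling to non-targeting control siRNA wells of the plate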
Details: RAW264.7 macrophages, IL-1a HTRF, actives lie on both sides, screened at 100 nM (by protocol), cells primed 5 h with Pam3CSK4 first
Method in brief: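 Knockdown: 100 nM siRNA, 48h, RAW264.7. Stimulation: Pam3CSK4 5 h, then LipidA via TransIT-TKO 24 h. Output: supernatant IL-1a HTRF, negative-control-normalized, log robust z-score; viability by CellTiter-Glo.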

| Sequence | z-score |
| --- | --- |
| GCGAGCGGCUGUCUAUUAATT against Nkiras2 | inactive: -0.277 |
| GGUCCUUUAAGGUCGAUCATT against Mllt3 | inactive: -0.546 |
| GGCAAGUUUCCUCUGCCUUTT against Gbgt1 | inactive: -0.614 |
| CGGCACACUAAGAAACGGATT against Odf3l1 | inactive: 0.152 |
| GGUCAAGGCUGUCAAGUUGTT against Wdr45b | inactive: -0.13 |
| GGCCCACAAGAAGAACAAGTT against Zfp423 | inactive: 1.29 |
| CCUAAGACCCUCAGAAAACTT against Pcdhb7 | inactive: 0.291 |
| GGUGUAGCAACCAACCCAATT against Tpsg1 | inactive: -1.88 |
| GGUACAAGAUAUUGUGAAATT against Fgd3 | inactive: 0.0612 |
| GUGCUUCUGAUCUCCUACATT against Olfr223 | inactive: 1 |
| GCAGAAGACCGCUUAAACATT against Cspp1 | inactive: 0.658 |
| GGCAGAGCCAGAAAAAUUGTT against Slc30a1 | inactive: 0.306 |
| CCACUCACUUUCGUAUCUUTT against Fancm | inactive: -0.188 |
| GGCCAGCUACAAACUGCCUTT against Ydjc | inactive: 0.92 |
| GGGCAAGGUGAAGCAUUAATT against Numa1 | inactive: -1.68 |
| GGGAGCUUUCCAGUAACUGTT against Rfng | inactive: 0.743 |
| GGUUCAGUGCUUUGUGUUCTT against Il2rg | inactive: -0.541 |
| GGAGCAGAUGUCAACAAAATT against Invs | inactive: -1.7 |
| GCUGCUUGCAUGCGUUACUTT against Nacc2 | inactive: 1.31 |
| GGUGCAGUUUUAUACCUAUTT against Rtn4rl1 | inactive: 0.719 |
| GGGAGAAAUACUCUUGUUATT against Atg4a | inactive: -0.634 |
| GGACAGAGGACAAGCAGAATT against Ghrl | inactive: -0.532 |
| UUUCCUGGAACUCGACAGGTT against Wdr34 | inactive: 0.487 |
| GGAGAAGUCCAUACGGAUCTT against Gpr18 | inactive: 0.184 |
| CCAUCCUGCUGUUUGCAUCTT against AB124611 | inactive: -1.87 |
| GGCGCAUUCCUCUGUAGAATT against Ddc | inactive: -0.0597 |
| GGAAACAAGGUCUCUGUUUTT against Mpzl2 | inactive: -1.47 |
| GGUGCUUCGUUUAUUACCATT against Lig3 | inactive: 0.537 |
| GGAACAAACCAAGUUCACATT against Kcnip2 | inactive: -0.66 |
| CCUCAUAAAUUCACUCUCCTT against Bpifa2 | inactive: 0.984 |

Fetched one by one from the entries so far:

| Sequence | z-score |
| --- | --- |
| GGCAAGUUUCCUCUGCCUUTT against Gbgt1 | inactive: -0.614 |
| GGUCAAGGCUGUCAAGUUGTT against Wdr45b | inactive: -0.13 |
